PubChem BioAssay AID504791 | Drosophila RNAi Screening Center | 2011
Purpose: 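Genes of the fly required for silencing by miRNA, siRNA or endo-siRNA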 (primary screen). Cells: Drosophila S2-derived reporter cells. Reagents: long dsRNA against Drosophila genes, about 150-250 ng dsRNA per well (siRNA assay); about 80-120 ng (miRNA assay). Duration: about 5 days (siRNA assay); about 4 days (miRNA assay). Treatment: copper sulfate induction of reporters: 25 µM (siRNA assay); 200 mM stated (miRNA assay), 1-2 days before reading. Read-out: 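Dual luciferase assay: Renilla to firefly signal ratio in each well, scaled to the mean ratio of its plate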. Hit rule: 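First-pass picks had plate-scaled ratios over 1.5 for the siRNA assay, over 1.6 for the miRNA assay, or under 0.6; two distinct dsRNAs had to score alike on retest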.
In all, the deposit lists about 23,000 reagents; this is an unselected part of those that have a named target and a result. Over the whole deposit, 199 (0.86%) got an active call. 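Plate-scaled ratios behind the calls are not deposited; printed light signals are raw; many rows marked increased or decreased are still called inactive.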 A number with no mark means an inactive call. Reagents against one gene are numbered here. Not stated in the record: the direction of the score.

After knock-down of CG11808, the record shows stable assay Renilla, run 1 (luminescence) = 12512; stable assay firefly, run 1 (luminescence) = 4.90e5. Knock-down of Pif1A #1 gave: stable assay Renilla, run 1 (luminescence) = 7195; stable assay firefly, run 1 (luminescence) = 3.95e5. Against Pif1A #2, the values are stable assay Renilla, run 1 (luminescence) = 6975; stable assay firefly, run 1 (luminescence) = 4.47e5. CG14564 #1 gave stable assay Renilla, run 1 (luminescence) = 6767; stable assay firefly, run 1 (luminescence) = 3.25e5. For CG14564 #2, the values are stable siRNA reporter change reporter ratio lowered past the hit cutoff; stable assay Renilla, run 1 (luminescence) = 1752; stable assay firefly, run 1 (luminescence) = 3.30e5. With knock-down of CG4324 the results were stable assay Renilla, run 1 (luminescence) = 6442; stable assay firefly, run 1 (luminescence) = 4.57e5.

da scored stable assay Renilla, run 1 (luminescence) = 6563; stable assay firefly, run 1 (luminescence) = 4.88e5. Srg1 scored stable assay Renilla, run 1 (luminescence) = 6806; stable assay firefly, run 1 (luminescence) = 3.95e5. Against PolE1 the deposit lists stable assay Renilla, run 1 (luminescence) = 17682; stable assay firefly, run 1 (luminescence) = 5.87e5. Silencing of CheA7a gave: stable assay Renilla, run 1 (luminescence) = 6039; stable assay firefly, run 1 (luminescence) = 2.99e5. CG11147 scored stable assay Renilla, run 1 (luminescence) = 6956; stable assay firefly, run 1 (luminescence) = 3.88e5. CG10904 gave stable assay Renilla, run 1 (luminescence) = 4928; stable assay firefly, run 1 (luminescence) = 3.37e5.
